{"source": "PubChem BioAssay AID2685", "about": "(National Center for Advancing Translational Sciences (NCATS), 2010)", "note": "Out of some 320,000 compounds screened, about 2,100 (0.66%) were called active. Inconclusive means that the source gave no clear call. Such entries were picked first, then a sample of the others. Calls come from the whole dose curve; as a rule, active = well fitted inhibition curve with a large enough effect in the signal ratio, with a control signal flat (not every such curve was filed as active); inconclusive = small, poorly fitted or top-dose-only effect, or effect the other way, or a change in a side signal; inactive = flat fitted curve, though single readings scatter; the % refers to the signal ratio. Potencies beside an inconclusive call are fits to weak or partial responses and may not hold up. % is set by controls: 0 for no effect and ±100 for the full control effect; potency is the fitted concentration of half-maximal effect.", "data": [{"assay": "qHTS Assay for Lipid Storage Modulators in Drosophila S3 Cells", "conditions": "BODIPY lipid droplet fluorescence, 18-24 h, cells fed with added oleic acid; lipid storage change, negative = inhibition: at 46.1 µM (top of the series) unless noted", "procedure,_shortened": "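Laser-scanning cytometry quantifies lipid droplet accumulation (500–530 nm total intensity; droplet/cell object ratio) in oleic acid-fed (400 uM added) Drosophila S3 cells treated with a concentration series. 20 uM Triacsin C defined 100% inhibition.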", "values": [{"smiles": "COc1cc(/C=C/C(=O)c2ccc(NS(=O)(=O)c3ccc(C)cc3)cc2)ccc1OC(F)F", "lipid storage change, negative = inhibition": "inconclusive: -94.5%"}, {"smiles": "COc1cccc(Oc2cc(Cl)nc(N)n2)c1", "lipid storage change, negative = inhibition": "inactive"}, {"smiles": "Cc1cc(C(=O)OCC(=O)NC2(C#N)CCCCC2)c(C)o1", "Potency": "inconclusive: 18.4 µM [activator, single point]"}, {"smiles": "Cc1ccc2c(COC(=O)c3ccccc3OC(F)F)cc(=O)oc2c1", "lipid storage change, negative = inhibition": "inactive"}, {"smiles": "CCOc1cc2[nH]c(=O)n(Cc3ccc(C(=O)NCCCN4CCCC4=O)cc3)c(=O)c2cc1OCC", "lipid storage change, negative = inhibition": "inconclusive: -33.6%"}, {"smiles": "COc1ccc(-n2c(=O)cc(N3CCN(c4ccccc4OC)CC3)[nH]c2=O)cc1", "lipid storage change, negative = inhibition": "inconclusive: -34.8%"}, {"smiles": "CCOc1ccc(S(=O)(=O)Nc2cccc(-c3ccc(N4CCCCCC4)nn3)c2)cc1", "lipid storage change, negative = inhibition": "inconclusive: -6.52%"}, {"smiles": "O=C(c1ccc2nc(N3CCCCC3)sc2c1)N1CCN(c2ccccn2)CC1", "Potency": "inconclusive: 4.11 µM [rising, full curve, poor fit]"}, {"smiles": "O=C(CSc1ncnc2nc[nH]c12)Nc1nnc(SCc2ccc(Cl)c(Cl)c2)s1", "lipid storage change, negative = inhibition": "inconclusive: -1.88%"}, {"smiles": "Cc1ccc(-n2ncc3c2CCCC3NC(=O)CCCN2CCCCC2=O)cc1C", "note": "(centres undefined)", "Potency": "inconclusive: 0.58 µM [activator, single point]"}, {"smiles": "O=C(Nc1cccc(NC(=O)c2cccs2)c1)c1ccc(Br)cc1", "lipid storage change, negative = inhibition": "inconclusive: -87.1%"}, {"smiles": "CN1CCN(C(=O)CCN2C(=O)S/C(=C/c3ccc(Cl)cc3)C2=O)CC1", "Potency": "inconclusive: 29.1 µM [rising, single point]"}, {"smiles": "COc1ccc(-c2nc3n(n2)C(c2ccccc2Cl)C(C(N)=O)=C(C)N3)cc1", "note": "(centres undefined)", "lipid storage change, negative = inhibition": "inconclusive: -4.21% [at 9.22 µM]"}, {"smiles": "O=C(NCC(=O)N(c1cccc(F)c1)C(C(=O)NC1CCCC1)c1cccnc1)c1ccco1", "note": "(centres undefined)", "lipid storage change, negative = inhibition": "inconclusive: -30.6%"}, {"smiles": "CCOc1ccccc1OCCn1nnc2ccccc21", "Potency": "inconclusive: 0.326 µM [activator, partial curve, poor fit]"}, {"smiles": "CC(C)C(=O)Nc1cccc(-c2nc3ncccc3o2)c1", "lipid storage change, negative = inhibition": "inconclusive: -87.7%"}, {"smiles": "CCOC(=O)[C@H]1[C@H]2COc3ccc(OC)cc3[C@@H]2N2C(=O)CN(Cc3ccc(OC)cc3)C(=O)[C@@]12C", "lipid storage change, negative = inhibition": "inconclusive: 21%"}, {"smiles": "Cc1ccc(C(=O)NCCc2cccc(Cl)c2)cc1[N+](=O)[O-]", "Potency": "inconclusive: 9.2 µM [activator, partial curve]"}, {"smiles": "Cc1nn(Cc2ccc(C(=O)NC(C)(C)C)o2)c(C)c1Br", "lipid storage change, negative = inhibition": "inconclusive: -79.4%"}, {"smiles": "CCOc1ccc(-n2c(SC(C)C)nc3c(c2=O)SCC3)cc1", "lipid storage change, negative = inhibition": "inconclusive: -28.2%"}, {"smiles": "CCN(CC)CCN1C(=O)C(=O)/C(=C(/O)c2cnn(-c3ccccc3)c2C)C1c1ccc(C)o1", "note": "(centres undefined)", "lipid storage change, negative = inhibition": "inconclusive: 16.2%"}, {"smiles": "Cc1ccc(S(=O)(=O)N(C)CC(=O)N/N=C/c2ccc(C)o2)cc1", "Potency": "inconclusive: 1.03 µM [activator, partial curve]"}, {"smiles": "Cc1nc2sc(C(c3ccco3)N3CC(C)OC(C)C3)c(O)n2n1", "note": "(centres undefined)", "lipid storage change, negative = inhibition": "inconclusive: 23.8%"}, {"smiles": "Cc1ccc(-n2c(C)cc(/C=C3\\SC(=O)NC3=O)c2C)cc1", "Potency": "inconclusive: 14.6 µM [falling, single point]"}, {"smiles": "Cc1ccc(OCc2ccc(C(=O)NCC3CCCO3)cc2)cc1", "note": "(centres undefined)", "lipid storage change, negative = inhibition": "inactive"}, {"smiles": "NNc1nc(-c2ccccc2)cc(-c2ccccc2)n1", "lipid storage change, negative = inhibition": "inconclusive: -19.2%"}, {"smiles": "COc1ccc(-n2cccc2/C=C2/NC(=O)N(c3cccc(Cl)c3)C2=O)cc1", "Potency": "inconclusive: 6.51 µM [falling, single point]"}, {"smiles": "O=C(CCN=C1NS(=O)(=O)c2ccccc21)OCC(=O)c1ccccc1", "lipid storage change, negative = inhibition": "inconclusive: -1.62%"}, {"smiles": "CCC(C)NC(=O)C1c2cc(OC)c(OC)cc2C(=O)N(C)C1c1cccs1", "note": "(centres undefined)", "lipid storage change, negative = inhibition": "inconclusive: -25.6%"}, {"smiles": "CCCCn1c(N)c(N(CCC(C)C)C(=O)C(C)N2C(=O)c3ccccc3C2=O)c(=O)[nH]c1=O", "note": "(centres undefined)", "lipid storage change, negative = inhibition": "inconclusive"}, {"smiles": "Cc1ccc(Cl)cc1N1CCN(S(=O)(=O)c2c(C)noc2C)CC1", "Potency": "inconclusive: 29.1 µM [rising, single point]"}, {"smiles": "Cc1ccc(S(=O)(=O)N2CCOCC2)cc1NC(=O)COC(=O)c1cnc(Cl)c(Cl)c1", "lipid storage change, negative = inhibition": "inactive"}, {"smiles": "FC(F)(F)c1ccc(C2Nc3cccc4cccc(c34)N2)cc1", "lipid storage change, negative = inhibition": "inconclusive: -35.4%"}, {"smiles": "Cc1ccc(C(=O)N2CCN(C(=O)c3ccccc3)C2c2ccc(N(C)C)cc2)cc1", "note": "(centres undefined)", "lipid storage change, negative = inhibition": "inconclusive: 5.97%"}, {"smiles": "CC(=O)c1ccc(N(CC(=O)NC2CCCC2)C(=O)CNC(=O)c2ccco2)cc1", "lipid storage change, negative = inhibition": "inconclusive: -53.5%"}, {"smiles": "COc1ccc(OCCSc2nnc(C(C)NC(=O)c3ccccc3F)n2C)cc1", "note": "(centres undefined)", "lipid storage change, negative = inhibition": "inconclusive: -29.7%"}, {"smiles": "S=c1nc(-c2cccc(Br)c2)[nH][nH]1", "lipid storage change, negative = inhibition": "inconclusive: 17%"}, {"smiles": "CN(C)C(=O)c1cc(C(=O)c2ccccc2C(F)(F)F)c[nH]1", "lipid storage change, negative = inhibition": "inconclusive: 2.01%"}, {"smiles": "Cc1ccc(C(=O)NC(=S)Nc2ccc(CN3CCOCC3)cc2)cc1", "lipid storage change, negative = inhibition": "inconclusive: -71.3%"}, {"smiles": "O=C(NCc1nc2ccccc2[nH]1)C1=C[C@H](c2ccccc2)C[C@H](OCCCCO)O1", "lipid storage change, negative = inhibition": "inconclusive: 20.4%"}, {"smiles": "Cc1cccc(N(CC(=O)N2CCN(c3ccc(F)cc3)CC2)S(C)(=O)=O)c1C", "lipid storage change, negative = inhibition": "inconclusive: 26.1%"}, {"smiles": "Cc1cc(C)n2ncc(-c3cccc(Br)c3)c2n1", "lipid storage change, negative = inhibition": "inconclusive: -19.6%"}, {"smiles": "COc1ccc(C(C)=O)cc1COC(=O)c1c(C)noc1C", "Potency": "inconclusive: 1.64 µM [activator, partial curve]"}, {"smiles": "Fc1ccc(-n2[nH]nnc2=S)cc1N1CCCC1", "lipid storage change, negative = inhibition": "inconclusive: 14%"}, {"smiles": "COc1ccc(CC(=O)N/N=C(\\C)CC(=O)NCc2ccco2)cc1OC", "Potency": "inconclusive: 0.92 µM [falling, full curve, poor fit]"}, {"smiles": "COc1cccc2cc(C(=O)n3ccc(C)n3)c(=O)oc12", "Potency": "inconclusive: 6.51 µM [falling, single point]"}, {"smiles": "COc1cccc(-c2c(C(=O)N/N=C/c3ccsc3)nnn2-c2nonc2N)c1", "lipid storage change, negative = inhibition": "inconclusive: 17.1%"}, {"smiles": "COc1ccc(OCCNC(=O)Nc2cc(F)c(F)cc2Cl)cc1", "lipid storage change, negative = inhibition": "inconclusive: 19.5%"}, {"smiles": "O=C1/C(=C/c2cccnc2)Oc2cc(OS(=O)(=O)c3ccc(Cl)cc3)ccc21", "lipid storage change, negative = inhibition": "inconclusive: 6.77%"}, {"smiles": "CC1CN(C(=O)COC(=O)c2ccc(Cl)nc2)CC(C)O1", "note": "(centres undefined)", "lipid storage change, negative = inhibition": "inconclusive: 5.94%"}, {"smiles": "COCCNC(=O)COc1ccccc1Cl", "lipid storage change, negative = inhibition": "inconclusive: 6.34%"}, {"smiles": "CCCOc1ccc(Br)cc1/C=N/O", "lipid storage change, negative = inhibition": "inconclusive: -2.02%"}, {"smiles": "Cc1cccc(CNc2ncc(-c3cccc([N+](=O)[O-])c3)n2C)c1", "lipid storage change, negative = inhibition": "inconclusive: 26.3%"}, {"smiles": "Cc1ccc(NC(=O)CSc2nnc(CNC(=O)c3ccco3)n2C)c(C)c1", "lipid storage change, negative = inhibition": "inconclusive: 0.255%"}, {"smiles": "C=CCn1c(SCC(=O)NC(=O)NCc2ccco2)nc2sc(CC)cc2c1=O", "lipid storage change, negative = inhibition": "inconclusive: 6.86%"}, {"smiles": "Cc1c(C(=O)Nc2c(C)n(C)n(-c3ccccc3)c2=O)oc2c(Cl)cccc12", "Potency": "inconclusive: 0.13 µM [activator, full curve, poor fit]"}, {"smiles": "Cc1c(Cl)cccc1NC(=O)CCN1C(=O)NC(C)(C)C1=O", "lipid storage change, negative = inhibition": "inconclusive"}, {"smiles": "O=C(O)CCCN=C1CCCc2ccccc2N1", "lipid storage change, negative = inhibition": "inconclusive: -29.1%"}, {"smiles": "C/C(=N/NS(C)(=O)=O)c1ccc2ccccc2c1", "lipid storage change, negative = inhibition": "inconclusive: 75.7%"}, {"smiles": "O=C(CN1CCCC1)Nc1cc(F)ccc1F", "lipid storage change, negative = inhibition": "inconclusive: -63.6%"}, {"smiles": "CN(C)S(=O)(=O)c1ccc2oc(SCC(N)=O)nc2c1", "Potency": "inconclusive: 29.1 µM [cytotoxic, single point]"}, {"smiles": "Cn1[nH]c(C(F)(F)F)cc1=O", "lipid storage change, negative = inhibition": "inconclusive: 17.9%"}, {"smiles": "O=C(Cc1ccon1)c1ccc(O)cc1O", "Potency": "inconclusive: 29.1 µM [rising, single point]"}, {"smiles": "COc1ccc(NC(=O)CCSCCC(=O)Nc2ccc(OC)cc2OC)c(OC)c1", "lipid storage change, negative = inhibition": "inconclusive: 14.5%"}, {"smiles": "CS(=O)(=O)N1CCN(Cc2cc(=O)n3ccsc3n2)CC1", "lipid storage change, negative = inhibition": "inconclusive: -107%"}, {"smiles": "CCOC(=O)c1sc2nc(N3CCCC3)c3c(c2c1N)CC(C)(C)OC3", "Potency": "inconclusive: 23.1 µM [falling, single point]"}, {"smiles": "Cc1cc(C)c(S(=O)(=O)Nc2cc(SCC(=O)O)c(O)c3ccccc23)cc1C", "lipid storage change, negative = inhibition": "inconclusive: 6.08%"}, {"smiles": "COc1ccc(-c2cc(C(=O)NC3CCCC3)no2)cc1OC", "lipid storage change, negative = inhibition": "inconclusive: 7.03%"}, {"smiles": "OC(CN1CCN(c2ncc(C(F)(F)F)cc2Cl)CC1)c1ccccc1", "note": "(centres undefined)", "lipid storage change, negative = inhibition": "inconclusive: -79.2%"}, {"smiles": "CC(N=c1ccccn1C(=O)Nc1ccc(Cl)cc1)c1ccco1", "note": "(centres undefined)", "lipid storage change, negative = inhibition": "inconclusive: 10.9%"}, {"smiles": "COc1ccccc1N1CCN(CCN2C(=O)C3CCCN3C2=O)CC1", "note": "(centres undefined)", "Potency": "inconclusive: 29.1 µM [activator, single point]"}, {"smiles": "N#CCCN1CCN(S(=O)(=O)c2ccc(S(=O)(=O)NCC3CCCO3)cc2)CC1", "note": "(centres undefined)", "lipid storage change, negative = inhibition": "inconclusive: 8.28%"}, {"smiles": "CC(C(=O)NC1CCCC1)N(Cc1ccco1)C(=O)c1snc(C(=O)NC2CCCC2)c1N", "note": "(centres undefined)", "lipid storage change, negative = inhibition": "inconclusive: 2.25%"}, {"smiles": "CCOc1ccccc1NS(=O)(=O)c1c(C)[nH]c(C)c1C(=O)N1CCCCC1", "lipid storage change, negative = inhibition": "inconclusive: -17.2%"}, {"smiles": "COc1ccc(N(C(=O)c2cccc([N+](=O)[O-])c2)S(=O)(=O)c2cccs2)cc1", "Potency": "inconclusive: 29.1 µM [falling, single point]"}, {"smiles": "CN(C(=O)COc1ccc(Cl)cc1Br)C1CCCCC1", "lipid storage change, negative = inhibition": "inconclusive: 29.7%"}, {"smiles": "CSc1ccccc1NC(=O)c1cc(Cl)sc1Cl", "lipid storage change, negative = inhibition": "inconclusive: 18.4%"}, {"smiles": "COCCn1c(SCC(=O)NC2CCCC2)nnc1-c1ccco1", "Potency": "inconclusive: 0.103 µM [falling, full curve, poor fit]"}, {"smiles": "Cc1cccc(N2CCN(c3ccc4cc(S(=O)(=O)N5CCCCC5)ccc4n3)CC2)c1C", "Potency": "inconclusive: 0.651 µM [activator, single point]"}]}]}
